The source of these data is PMC10956046.

Amino acid sequences for entries named in this document (tags omitted).
UniProt O15160: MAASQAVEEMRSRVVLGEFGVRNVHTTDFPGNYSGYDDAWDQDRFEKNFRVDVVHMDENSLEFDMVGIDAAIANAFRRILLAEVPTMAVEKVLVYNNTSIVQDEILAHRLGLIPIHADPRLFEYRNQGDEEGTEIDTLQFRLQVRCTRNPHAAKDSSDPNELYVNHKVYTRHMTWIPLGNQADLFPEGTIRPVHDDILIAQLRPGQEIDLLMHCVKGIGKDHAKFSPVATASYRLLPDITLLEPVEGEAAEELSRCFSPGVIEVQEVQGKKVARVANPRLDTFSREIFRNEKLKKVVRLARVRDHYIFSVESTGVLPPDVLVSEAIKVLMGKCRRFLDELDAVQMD

These are yes or no findings as the source states them, for the method shown. Binding seen in cells or lysates may run through a third protein. Where a sequence is shown, tags or fusion partners need not be part of it.

The target of the assay is T1, recombinant GFP-ZNF692 (UniProt Q9BU19).
T1 sequence: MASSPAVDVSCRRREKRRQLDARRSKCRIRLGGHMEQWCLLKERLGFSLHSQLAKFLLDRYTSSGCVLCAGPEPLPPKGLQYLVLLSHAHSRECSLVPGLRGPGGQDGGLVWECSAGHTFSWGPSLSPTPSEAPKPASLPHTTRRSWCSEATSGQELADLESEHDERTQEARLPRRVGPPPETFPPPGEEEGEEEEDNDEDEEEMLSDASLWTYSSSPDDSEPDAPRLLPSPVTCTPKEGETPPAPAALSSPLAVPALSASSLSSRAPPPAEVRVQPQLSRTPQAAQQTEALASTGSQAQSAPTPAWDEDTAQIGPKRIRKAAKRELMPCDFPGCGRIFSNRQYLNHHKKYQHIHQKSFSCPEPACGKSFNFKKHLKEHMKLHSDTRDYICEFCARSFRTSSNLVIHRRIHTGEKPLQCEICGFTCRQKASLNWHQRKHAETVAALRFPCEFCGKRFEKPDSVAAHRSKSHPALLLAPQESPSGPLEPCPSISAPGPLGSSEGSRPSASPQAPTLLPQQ
In words: pull-down; purified recombinant GFP-ZNF692 WT or mutants on GFP-trap beads, incubated with DLD1 nuclear extracts overnight; immunoblot for NPM1, FBL, RPA40; only the target purified.

Consider RPA40 (from UniProt O15160 1-346), for which the binding result is listed as “no binding”.

B1: fibrillarin (FBL) (protein, UniProt P22087 1-321)
chain: MKPGFSPRGGGFGGRGGFGDRGGRGGRGGFGGGRGRGGGFRGRGRGGGGGGGGGGGGGRGGGGFHSGGNRGRGRGGKRGNQSGKNVMVEPHRHEGVFICRGKEDALVTKNLVPGESVYGEKRVSISEGDDKIEYRAWNPFRSKLAAAILGGVDQIHIKPGAKVLYLGAASGTTVSHVSDIVGPDGLVYAVEFSHRSGRDLINLAKKRTNIIPVIEDARHPHKYRMLIAMVDVIFADVAQPDQTRIVALNAHTFLRNGGHFVISIKANCIDSTASAEAVFASEVKKMQQENMKPQEQLTLEPYERDHAVVVGVYRPPPKVKN
With B1, the binding result is given as “no binding”.
